Results are given in words; binding and its absence hold for the method and conditions named. In cells and extracts the contact can be indirect. A yes stands for co-enrichment or nearness to the bait. Other partners may have been found. Sequences can lack the tags named with a protein.
B1: golgin84 (Golgi apparatus protein), endogenous (protein, UniProt Q8TBA6 1-731)
chain: MSWFVDLAGKAEDLLNRVDQGAATALSRKDNASNIYSKNTDYTELHQQNTDLIYQTGPKSTYISSAADNIRNQKATILAGTANVKVGSRTPVEASHPVENASVPRPSSHFVRRKKSEPDDELLFDFLNSSQKEPTGRVEIRKEKGKTPVFQSSQTSSVSSVNPSVTTIKTIEENSFGSQTHEAASNSDSSHEGQEESSKENVSSNAACPDHTPTPNDDGKSHELSNLRLENQLLRNEVQSLNQEMASLLQRSKETQEELNKARARVEKWNADHSKSDRMTRGLRAQVDDLTEAVAAKDSQLAVLKVRLQEADQLLSTRTEALEALQSEKSRIMQDQSEGNSLQNQALQTFQERLHEADATLKREQESYKQMQSEFAARLNKVEMERQNLAEAITLAERKYSDEKKRVDELQQQVKLYKLNLESSKQELIDYKQKATRILQSKEKLINSLKEGSGFEGLDSSTASSMELEELRHEKEMQREEIQKLMGQIHQLRSELQDMEAQQVNEAESAREQLQDLHDQIAGQKASKQELETELERLKQEFHYIEEDLYRTKNTLQSRIKDRDEEIQKLRNQLTNKTLSNSSQSELENRLHQLTETLIQKQTMLESLSTEKNSLVFQLERLEQQMNSASGSSSNGSSINMSGIDNGEGTRLRNVPVLFNDTETNLAGMYGKVRKAASSIDQFSIRLGIFLRRYPIARVFVIIYMALLHLWVMIVLLTYTPEMHHDQPYGK
B2: NFKB2 (NF-κB subunit), endogenous (protein, UniProt Q00653 1-900)
chain: MESCYNPGLDGIIEYDDFKLNSSIVEPKEPAPETADGPYLVIVEQPKQRGFRFRYGCEGPSHGGLPGASSEKGRKTYPTVKICNYEGPAKIEVDLVTHSDPPRAHAHSLVGKQCSELGICAVSVGPKDMTAQFNNLGVLHVTKKNMMGTMIQKLQRQRLRSRPQGLTEAEQRELEQEAKELKKVMDLSIVRLRFSAFLRASDGSFSLPLKPVISQPIHDSKSPGASNLKISRMDKTAGSVRGGDEVYLLCDKVQKDDIEVRFYEDDENGWQAFGDFSPTDVHKQYAIVFRTPPYHKMKIERPVTVFLQLKRKRGGDVSDSKQFTYYPLVEDKEEVQRKRRKALPTFSQPFGGGSHMGGGSGGAAGGYGGAGGGGSLGFFPSSLAYSPYQSGAGPMGCYPGGGGGAQMAATVPSRDSGEEAAEPSAPSRTPQCEPQAPEMLQRAREYNARLFGLAQRSARALLDYGVTADARALLAGQRHLLTAQDENGDTPLHLAIIHGQTSVIEQIVYVIHHAQDLGVVNLTNHLHQTPLHLAVITGQTSVVSFLLRVGADPALLDRHGDSAMHLALRAGAGAPELLRALLQSGAPAVPQLLHMPDFEGLYPVHLAVRARSPECLDLLVDSGAEVEATERQGGRTALHLATEMEELGLVTHLVTKLRANVNARTFAGNTPLHLAAGLGYPTLTRLLLKAGADIHAENEEPLCPLPSPPTSDSDSDSEGPEKDTRSSFRGHTPLDLTCSTKVKTLLLNAAQNTMEPPLTPPSPAGPGLSLGDTALQNLEQLLDGPEAQGSWAELAERLGLRSLVDTYRQTTSPSGSLLRSYELAGGDLAGLLEALSDMGLEEGVRLLRGPETRDKLPSTAEVKEDSAYGSQSVEQEAEKLGPPPEPPGGLCHGHPQPQVH

Molecular target: FLAG-HA-iASPP (stably expressed in HeLa cells) (UniProt Q8WUF5)
Assay: affinity purification with mass spectrometry; tandem affinity purification from HeLa cells stably expressing the FLAG-HA-tagged bait (iASPP or CEP55): lysis in BC100 buffer (20 mM Tris-Cl pH 7.9, 100 mM NaCl, 0.2 mM EDTA, 20% glycerol) with 0.2% Triton X-100; anti-FLAG M2 agarose, FLAG peptide elution, then anti-HA agarose, HA peptide elution; SDS-PAGE, gel bands sequenced by LC-MS/MS

Binder | binding
B1 | binds
B2 | binds

Reference: paper PMC5943338
